This is an account of results in PMC9440387.

Amino acid sequences for entries named in this document (tags omitted). A change or cut given only in a name is not applied to a line headed by its entry.
UniProt Q16531: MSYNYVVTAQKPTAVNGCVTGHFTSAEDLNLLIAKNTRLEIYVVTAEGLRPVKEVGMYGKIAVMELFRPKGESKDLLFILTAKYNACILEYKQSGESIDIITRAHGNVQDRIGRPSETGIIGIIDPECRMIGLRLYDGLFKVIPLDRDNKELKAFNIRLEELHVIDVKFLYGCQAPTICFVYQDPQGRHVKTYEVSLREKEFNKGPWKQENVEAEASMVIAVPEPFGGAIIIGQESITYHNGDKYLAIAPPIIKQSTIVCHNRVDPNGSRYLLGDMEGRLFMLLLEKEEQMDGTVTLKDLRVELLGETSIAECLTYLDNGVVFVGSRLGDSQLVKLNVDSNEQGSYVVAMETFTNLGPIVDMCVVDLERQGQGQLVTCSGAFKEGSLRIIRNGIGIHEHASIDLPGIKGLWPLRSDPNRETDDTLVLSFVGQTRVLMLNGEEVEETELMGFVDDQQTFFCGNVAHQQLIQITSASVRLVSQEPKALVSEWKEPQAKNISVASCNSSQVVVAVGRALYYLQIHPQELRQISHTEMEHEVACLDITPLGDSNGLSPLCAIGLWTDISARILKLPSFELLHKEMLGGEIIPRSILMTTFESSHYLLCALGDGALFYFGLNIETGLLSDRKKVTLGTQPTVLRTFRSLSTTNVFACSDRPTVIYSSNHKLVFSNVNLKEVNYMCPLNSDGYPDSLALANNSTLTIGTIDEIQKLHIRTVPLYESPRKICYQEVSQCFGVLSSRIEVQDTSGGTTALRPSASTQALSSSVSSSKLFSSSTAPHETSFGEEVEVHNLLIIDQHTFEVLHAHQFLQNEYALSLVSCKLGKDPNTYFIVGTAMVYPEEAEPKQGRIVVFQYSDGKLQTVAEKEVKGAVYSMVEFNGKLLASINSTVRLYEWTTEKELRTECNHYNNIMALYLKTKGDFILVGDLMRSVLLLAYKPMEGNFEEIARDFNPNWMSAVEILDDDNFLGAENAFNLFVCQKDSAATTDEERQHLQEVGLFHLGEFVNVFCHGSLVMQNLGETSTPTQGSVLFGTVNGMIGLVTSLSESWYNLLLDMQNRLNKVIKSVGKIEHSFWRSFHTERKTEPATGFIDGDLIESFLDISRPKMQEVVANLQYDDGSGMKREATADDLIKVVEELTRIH
UniProt Q3U1J4: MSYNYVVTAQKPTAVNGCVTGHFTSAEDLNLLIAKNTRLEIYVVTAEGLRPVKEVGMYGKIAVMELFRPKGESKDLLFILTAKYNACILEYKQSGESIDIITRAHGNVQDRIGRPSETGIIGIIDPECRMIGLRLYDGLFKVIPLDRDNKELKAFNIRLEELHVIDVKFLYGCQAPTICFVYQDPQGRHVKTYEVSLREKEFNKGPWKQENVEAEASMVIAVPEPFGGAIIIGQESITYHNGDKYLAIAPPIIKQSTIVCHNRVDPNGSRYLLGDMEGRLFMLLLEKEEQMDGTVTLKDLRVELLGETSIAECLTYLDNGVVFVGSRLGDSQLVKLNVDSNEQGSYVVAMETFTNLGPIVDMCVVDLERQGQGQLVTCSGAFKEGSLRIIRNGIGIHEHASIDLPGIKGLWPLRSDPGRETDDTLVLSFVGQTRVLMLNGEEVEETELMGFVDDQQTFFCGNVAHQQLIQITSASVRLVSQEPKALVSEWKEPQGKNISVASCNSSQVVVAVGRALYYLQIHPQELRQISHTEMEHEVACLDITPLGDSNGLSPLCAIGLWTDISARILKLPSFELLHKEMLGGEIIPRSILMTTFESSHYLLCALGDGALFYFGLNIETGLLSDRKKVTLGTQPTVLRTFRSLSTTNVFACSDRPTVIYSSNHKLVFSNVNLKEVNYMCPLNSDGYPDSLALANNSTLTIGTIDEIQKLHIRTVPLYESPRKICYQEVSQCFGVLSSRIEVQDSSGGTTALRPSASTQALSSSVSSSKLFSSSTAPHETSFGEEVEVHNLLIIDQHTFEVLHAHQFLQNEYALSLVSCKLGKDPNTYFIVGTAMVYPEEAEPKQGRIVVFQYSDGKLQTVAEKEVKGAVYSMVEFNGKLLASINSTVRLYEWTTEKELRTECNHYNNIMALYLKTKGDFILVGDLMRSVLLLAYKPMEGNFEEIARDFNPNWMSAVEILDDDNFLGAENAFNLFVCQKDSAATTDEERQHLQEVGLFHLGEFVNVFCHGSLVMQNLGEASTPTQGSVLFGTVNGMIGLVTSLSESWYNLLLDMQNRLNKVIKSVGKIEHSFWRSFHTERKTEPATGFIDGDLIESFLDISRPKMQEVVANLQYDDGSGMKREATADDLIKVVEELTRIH

For assay [1], the target named is T1, F-box/WD40 repeat-containing protein Fbxw24 (mouse), 3xFLAG-tagged, overexpressed in HEK-293T (mouse) (UniProt E9PXM9).
T1 sequence: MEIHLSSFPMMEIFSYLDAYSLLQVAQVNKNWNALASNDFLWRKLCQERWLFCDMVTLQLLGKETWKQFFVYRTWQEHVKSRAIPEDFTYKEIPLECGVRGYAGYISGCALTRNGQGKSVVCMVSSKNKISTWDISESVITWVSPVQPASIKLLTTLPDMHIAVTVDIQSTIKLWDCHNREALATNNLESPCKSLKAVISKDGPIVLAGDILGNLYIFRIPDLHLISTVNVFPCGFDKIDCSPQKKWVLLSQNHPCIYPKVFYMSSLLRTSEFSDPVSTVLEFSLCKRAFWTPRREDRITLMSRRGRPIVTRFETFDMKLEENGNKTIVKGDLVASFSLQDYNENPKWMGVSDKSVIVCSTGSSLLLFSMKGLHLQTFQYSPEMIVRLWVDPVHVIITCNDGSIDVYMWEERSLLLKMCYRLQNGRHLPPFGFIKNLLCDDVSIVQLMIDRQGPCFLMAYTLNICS
The experiment in a line: co-IP; HEK-293T cells overexpressing 3xFLAG-Fbxw24; anti-DDDDK tag antibody on Protein G magnetic beads, overnight at 4 C; blots with anti-Ddb1 and anti-Cul4b; control cells as negative control.

Assay [2] has as its target T2, Fbxw24 with knocked-in Linker-3xFlag, endogenous in ovaries of C57BL/6J-Fbxw24^em(Linker-3xFlag) homozygote mice (mouse) (UniProt E9PXM9).
T2 sequence: T1 sequence
The experiment in a line: co-IP; ovaries of C57BL/6J-Fbxw24^em(Linker-3xFlag) homozygote mice, wild-type littermates as control; anti-DDDDK tag antibody on Protein G magnetic beads, overnight at 4 C; blots with anti-Ddb1 and anti-Cul4b.

Results are given in words; binding and its absence hold for the method and conditions named. In cells and extracts the contact can be indirect. Some entries that bind do so weakly or less than the wild type. Sequences can lack the tags named with a protein.

For “Ddb1-Cul4b (DNA damage-binding protein 1 and Cullin-4B), endogenous in HEK-293T cells (from UniProt Q16531 1-1140; Q13620 1-913) (complex)”, the binding result in assay [1] is “binds”.
As for “Ddb1-Cul4b (DNA damage-binding protein 1 and Cullin-4B), endogenous in mouse ovary (from UniProt Q3U1J4 1-1140; A2A432 1-970) (complex)”, the binding result in assay [2] is given as “binds”.
